From patent US6596271B2, “Insect control method with genetically engineered biopesticides” (priority 1996, dated 2003)

Tested on: neonate larvae of H. virescens
Test: Time-response of neonate larvae to NPVs with low concentrations of classical insecticides (droplet feeding, treated vials)
Format: in vivo, Heliothis virescens
Conditions: log-probit time-response; 2000 PIBs and/or LC10-LC20 (24 h) insecticide
Text: For example, two of the compounds studied were pyrethroids, […]. In our study we found a subadditive response when low rates of allethrin or cypermethrin were combined with wild-type AcNPV.

Compound	Slope ± SE
C=CCC1=C(C)C(OC(=O)C2C(C=C(C)C)C2(C)C)CC1=O (centres unmarked) [Allethrin]	1.46 ± 0.19
CC1(C)C(C=C(Cl)Cl)C1C(=O)OC(C#N)c1cccc(Oc2ccccc2)c1 (centres unmarked) [Cypermethrin]	1.49 ± 0.24
Clc1ccc(C(c2ccc(Cl)cc2)C(Cl)(Cl)Cl)cc1 [DDT]	1.45 ± 0.30
CNC(=O)ON=C(C)SC [Methomyl]	0.69 ± 0.20
CCCSP(=O)(OCC)Oc1ccc(Br)cc1Cl (centres unmarked) [Profenofos]	0.76 ± 0.19
